Data published in the supplement of paper PMC7666118.
The other results are listed elsewhere or left out.

Protein sequences, listed by entry. Tags and fused reporters are not part of them. Lines headed by an entry give the natural chain unless they say otherwise; changes in a name come on top.
UniProt Q9UPW5: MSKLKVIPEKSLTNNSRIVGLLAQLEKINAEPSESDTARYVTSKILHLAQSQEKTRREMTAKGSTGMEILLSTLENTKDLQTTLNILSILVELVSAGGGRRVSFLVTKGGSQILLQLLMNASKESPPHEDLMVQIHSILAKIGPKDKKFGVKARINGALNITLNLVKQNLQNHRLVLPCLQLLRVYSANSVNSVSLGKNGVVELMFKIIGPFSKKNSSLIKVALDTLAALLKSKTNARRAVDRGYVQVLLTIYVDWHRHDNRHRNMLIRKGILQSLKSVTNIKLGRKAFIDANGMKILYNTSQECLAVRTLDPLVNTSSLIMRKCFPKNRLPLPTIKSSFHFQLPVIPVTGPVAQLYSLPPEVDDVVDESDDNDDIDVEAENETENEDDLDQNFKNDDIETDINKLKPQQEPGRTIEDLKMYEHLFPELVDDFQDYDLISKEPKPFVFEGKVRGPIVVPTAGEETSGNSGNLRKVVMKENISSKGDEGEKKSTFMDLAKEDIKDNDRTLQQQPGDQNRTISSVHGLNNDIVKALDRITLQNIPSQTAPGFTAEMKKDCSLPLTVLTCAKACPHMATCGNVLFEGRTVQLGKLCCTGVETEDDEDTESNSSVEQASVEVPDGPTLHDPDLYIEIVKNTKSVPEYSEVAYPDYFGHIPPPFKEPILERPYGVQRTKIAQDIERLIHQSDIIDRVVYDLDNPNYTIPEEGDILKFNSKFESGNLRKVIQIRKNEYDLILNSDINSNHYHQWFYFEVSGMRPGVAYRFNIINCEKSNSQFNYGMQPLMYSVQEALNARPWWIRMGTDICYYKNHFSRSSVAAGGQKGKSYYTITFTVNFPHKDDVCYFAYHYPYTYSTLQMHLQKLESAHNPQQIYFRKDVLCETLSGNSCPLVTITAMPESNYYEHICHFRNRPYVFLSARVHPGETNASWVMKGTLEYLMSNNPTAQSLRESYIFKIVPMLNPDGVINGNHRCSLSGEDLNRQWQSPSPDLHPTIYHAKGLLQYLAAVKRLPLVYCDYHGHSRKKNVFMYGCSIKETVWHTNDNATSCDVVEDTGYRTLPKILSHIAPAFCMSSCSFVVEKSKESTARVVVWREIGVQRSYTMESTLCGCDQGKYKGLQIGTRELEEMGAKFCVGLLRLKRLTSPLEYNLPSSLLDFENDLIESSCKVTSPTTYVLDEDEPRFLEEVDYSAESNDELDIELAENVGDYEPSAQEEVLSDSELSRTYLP
UniProt P28039: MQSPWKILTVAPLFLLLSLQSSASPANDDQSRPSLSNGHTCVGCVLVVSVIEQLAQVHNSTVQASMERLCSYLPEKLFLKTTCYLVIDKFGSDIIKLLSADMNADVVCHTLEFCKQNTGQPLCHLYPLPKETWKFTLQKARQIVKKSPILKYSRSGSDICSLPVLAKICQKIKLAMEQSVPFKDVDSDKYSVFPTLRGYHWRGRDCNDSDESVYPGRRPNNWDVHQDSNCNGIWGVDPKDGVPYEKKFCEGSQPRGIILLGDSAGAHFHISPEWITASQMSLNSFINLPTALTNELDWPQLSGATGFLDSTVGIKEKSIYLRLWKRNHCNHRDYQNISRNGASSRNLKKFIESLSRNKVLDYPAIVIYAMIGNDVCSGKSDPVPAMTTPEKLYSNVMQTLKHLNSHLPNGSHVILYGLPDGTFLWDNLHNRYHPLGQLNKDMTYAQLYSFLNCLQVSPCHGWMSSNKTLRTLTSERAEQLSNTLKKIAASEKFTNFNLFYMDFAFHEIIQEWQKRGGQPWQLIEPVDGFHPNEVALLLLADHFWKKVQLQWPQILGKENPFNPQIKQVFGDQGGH
UniProt Q13740: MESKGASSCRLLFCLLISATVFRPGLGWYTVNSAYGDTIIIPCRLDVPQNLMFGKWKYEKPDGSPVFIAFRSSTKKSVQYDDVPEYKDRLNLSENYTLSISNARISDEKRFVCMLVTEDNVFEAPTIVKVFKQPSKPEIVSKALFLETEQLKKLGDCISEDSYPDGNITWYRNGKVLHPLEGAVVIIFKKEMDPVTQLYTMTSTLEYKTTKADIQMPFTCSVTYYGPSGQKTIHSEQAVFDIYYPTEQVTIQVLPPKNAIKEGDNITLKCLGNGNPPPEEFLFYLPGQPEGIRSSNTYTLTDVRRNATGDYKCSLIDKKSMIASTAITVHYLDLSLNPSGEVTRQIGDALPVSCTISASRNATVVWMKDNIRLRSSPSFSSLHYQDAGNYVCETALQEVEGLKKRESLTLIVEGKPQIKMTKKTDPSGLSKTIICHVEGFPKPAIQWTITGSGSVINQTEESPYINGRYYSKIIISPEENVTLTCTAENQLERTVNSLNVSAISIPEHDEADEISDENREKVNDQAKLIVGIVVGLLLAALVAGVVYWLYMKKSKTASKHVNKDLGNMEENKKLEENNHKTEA
UniProt Q6ZTN6: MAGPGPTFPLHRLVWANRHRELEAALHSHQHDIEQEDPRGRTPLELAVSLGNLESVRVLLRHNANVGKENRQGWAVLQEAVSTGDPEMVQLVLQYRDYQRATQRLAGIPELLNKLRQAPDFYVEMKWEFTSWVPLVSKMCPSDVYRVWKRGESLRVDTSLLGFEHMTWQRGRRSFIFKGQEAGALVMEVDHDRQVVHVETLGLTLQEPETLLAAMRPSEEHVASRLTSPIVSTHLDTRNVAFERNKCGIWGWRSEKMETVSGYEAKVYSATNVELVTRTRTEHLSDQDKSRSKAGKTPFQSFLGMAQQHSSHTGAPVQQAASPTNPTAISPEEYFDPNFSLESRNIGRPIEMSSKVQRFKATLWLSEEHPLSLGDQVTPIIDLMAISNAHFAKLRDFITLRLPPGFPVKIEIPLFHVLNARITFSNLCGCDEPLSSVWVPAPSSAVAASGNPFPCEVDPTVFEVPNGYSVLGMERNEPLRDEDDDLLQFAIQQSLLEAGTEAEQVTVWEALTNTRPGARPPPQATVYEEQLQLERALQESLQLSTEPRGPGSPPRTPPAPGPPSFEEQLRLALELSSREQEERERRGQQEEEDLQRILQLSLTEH
UniProt Q9GZN1, whole entry: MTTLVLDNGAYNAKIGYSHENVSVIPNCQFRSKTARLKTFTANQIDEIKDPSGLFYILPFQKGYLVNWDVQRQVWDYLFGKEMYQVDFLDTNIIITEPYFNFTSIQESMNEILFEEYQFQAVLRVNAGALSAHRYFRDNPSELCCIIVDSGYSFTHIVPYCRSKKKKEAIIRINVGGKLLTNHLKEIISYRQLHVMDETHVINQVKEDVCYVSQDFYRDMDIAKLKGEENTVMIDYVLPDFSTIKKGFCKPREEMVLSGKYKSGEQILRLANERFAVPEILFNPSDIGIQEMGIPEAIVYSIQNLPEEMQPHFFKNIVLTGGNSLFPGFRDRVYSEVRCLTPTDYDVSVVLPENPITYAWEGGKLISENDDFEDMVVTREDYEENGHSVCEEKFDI
UniProt O00154: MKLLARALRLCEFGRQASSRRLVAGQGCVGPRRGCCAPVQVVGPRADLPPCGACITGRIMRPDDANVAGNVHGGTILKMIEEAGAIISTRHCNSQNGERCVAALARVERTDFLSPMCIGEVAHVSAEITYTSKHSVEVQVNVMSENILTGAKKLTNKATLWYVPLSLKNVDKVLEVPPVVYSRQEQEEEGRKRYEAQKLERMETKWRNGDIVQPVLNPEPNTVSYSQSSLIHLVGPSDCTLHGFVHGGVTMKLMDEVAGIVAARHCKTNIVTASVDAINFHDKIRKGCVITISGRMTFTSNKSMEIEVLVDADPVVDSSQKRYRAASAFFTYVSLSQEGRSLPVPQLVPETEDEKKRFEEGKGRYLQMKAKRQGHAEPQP
UniProt P31751: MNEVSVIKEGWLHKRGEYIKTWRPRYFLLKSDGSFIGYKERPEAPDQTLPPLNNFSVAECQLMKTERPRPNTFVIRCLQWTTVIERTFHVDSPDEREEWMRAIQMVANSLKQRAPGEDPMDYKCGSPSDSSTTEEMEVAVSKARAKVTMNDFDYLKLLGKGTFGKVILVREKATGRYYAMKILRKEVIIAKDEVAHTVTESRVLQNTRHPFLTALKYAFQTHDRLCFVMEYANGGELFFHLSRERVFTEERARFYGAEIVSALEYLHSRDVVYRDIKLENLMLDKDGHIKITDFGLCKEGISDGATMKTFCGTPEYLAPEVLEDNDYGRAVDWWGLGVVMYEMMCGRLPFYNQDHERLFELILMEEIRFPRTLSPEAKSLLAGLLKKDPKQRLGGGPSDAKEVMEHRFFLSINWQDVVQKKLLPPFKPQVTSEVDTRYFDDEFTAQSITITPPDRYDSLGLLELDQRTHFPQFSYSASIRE
UniProt O95573: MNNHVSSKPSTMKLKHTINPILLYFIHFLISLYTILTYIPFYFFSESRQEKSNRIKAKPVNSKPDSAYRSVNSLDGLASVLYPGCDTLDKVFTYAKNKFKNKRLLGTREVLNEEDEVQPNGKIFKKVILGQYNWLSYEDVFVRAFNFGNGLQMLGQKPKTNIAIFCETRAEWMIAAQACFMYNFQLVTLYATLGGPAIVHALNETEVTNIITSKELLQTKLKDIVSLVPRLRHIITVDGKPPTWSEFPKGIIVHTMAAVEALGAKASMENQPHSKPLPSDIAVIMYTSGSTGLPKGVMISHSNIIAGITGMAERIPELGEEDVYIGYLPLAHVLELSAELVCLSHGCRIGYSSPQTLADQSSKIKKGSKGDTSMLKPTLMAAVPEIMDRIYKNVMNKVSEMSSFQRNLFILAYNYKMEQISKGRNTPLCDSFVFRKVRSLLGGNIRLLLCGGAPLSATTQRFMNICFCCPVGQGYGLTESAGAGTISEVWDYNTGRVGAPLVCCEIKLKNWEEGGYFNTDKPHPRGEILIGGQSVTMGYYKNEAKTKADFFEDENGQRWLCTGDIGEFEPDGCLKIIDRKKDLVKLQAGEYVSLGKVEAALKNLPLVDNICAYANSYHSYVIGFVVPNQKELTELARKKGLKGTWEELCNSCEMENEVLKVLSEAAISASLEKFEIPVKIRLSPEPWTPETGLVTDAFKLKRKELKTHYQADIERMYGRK
UniProt P09525: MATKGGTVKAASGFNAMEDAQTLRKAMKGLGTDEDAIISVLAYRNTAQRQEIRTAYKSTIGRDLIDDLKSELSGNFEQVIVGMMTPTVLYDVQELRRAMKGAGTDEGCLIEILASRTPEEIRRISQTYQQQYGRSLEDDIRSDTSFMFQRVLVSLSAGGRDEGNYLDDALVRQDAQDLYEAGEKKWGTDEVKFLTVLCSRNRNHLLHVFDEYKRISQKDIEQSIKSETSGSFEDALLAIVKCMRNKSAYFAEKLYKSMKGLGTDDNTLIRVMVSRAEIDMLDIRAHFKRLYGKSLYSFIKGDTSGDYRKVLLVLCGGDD
UniProt Q13795: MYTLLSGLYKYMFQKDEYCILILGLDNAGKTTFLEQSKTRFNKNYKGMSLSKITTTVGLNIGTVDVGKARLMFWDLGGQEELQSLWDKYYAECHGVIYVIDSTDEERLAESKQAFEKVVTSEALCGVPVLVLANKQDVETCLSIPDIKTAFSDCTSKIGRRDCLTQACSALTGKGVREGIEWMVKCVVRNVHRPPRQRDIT
UniProt P30566: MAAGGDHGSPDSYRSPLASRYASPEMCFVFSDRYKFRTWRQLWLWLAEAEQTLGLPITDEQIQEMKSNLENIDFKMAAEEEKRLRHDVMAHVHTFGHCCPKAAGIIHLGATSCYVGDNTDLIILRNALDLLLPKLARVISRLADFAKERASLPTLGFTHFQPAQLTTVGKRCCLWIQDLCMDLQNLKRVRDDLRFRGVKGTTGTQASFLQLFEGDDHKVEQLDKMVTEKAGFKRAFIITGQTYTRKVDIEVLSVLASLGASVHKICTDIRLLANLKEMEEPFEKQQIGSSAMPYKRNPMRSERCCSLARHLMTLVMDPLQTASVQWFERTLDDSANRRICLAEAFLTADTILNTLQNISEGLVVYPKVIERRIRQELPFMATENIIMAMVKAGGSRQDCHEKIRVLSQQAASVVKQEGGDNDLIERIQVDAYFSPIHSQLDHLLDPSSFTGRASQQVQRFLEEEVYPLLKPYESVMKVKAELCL
UniProt P14621: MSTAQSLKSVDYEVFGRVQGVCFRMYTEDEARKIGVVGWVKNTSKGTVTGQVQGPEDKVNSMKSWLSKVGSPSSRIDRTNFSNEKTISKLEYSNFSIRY
UniProt Q8N6T3: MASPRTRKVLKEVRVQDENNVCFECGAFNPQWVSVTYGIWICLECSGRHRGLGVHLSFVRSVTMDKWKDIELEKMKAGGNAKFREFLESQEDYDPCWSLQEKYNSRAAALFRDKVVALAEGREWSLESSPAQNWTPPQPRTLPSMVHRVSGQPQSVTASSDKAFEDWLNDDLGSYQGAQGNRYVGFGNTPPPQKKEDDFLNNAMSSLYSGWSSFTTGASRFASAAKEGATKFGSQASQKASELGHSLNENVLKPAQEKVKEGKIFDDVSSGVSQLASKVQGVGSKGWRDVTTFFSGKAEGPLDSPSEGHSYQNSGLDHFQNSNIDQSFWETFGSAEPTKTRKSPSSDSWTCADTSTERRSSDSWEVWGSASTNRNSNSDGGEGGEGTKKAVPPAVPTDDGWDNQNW

The targets below were run with COc1ccc(Cn2ccc3ccc(C(=O)NO)cc32)cc1 (assay: dose-dependent thermal stabilisation call (2D-TPP, DLPTP, 10% FDR) (binary (1 = stabilised)); higher = stabilised by the compound). Conditions: system: HL-60 intact cells; concentration range 0.04-10 µM.

Target | dose-dependent thermal stabilisation call
AGTPBP1 (UniProt Q9UPW5) | inactive: 0
ARHGAP26 (UniProt Q9UNA1) | inactive: 0
AOAH (UniProt P28039) | inactive: 0
APBB1IP (UniProt Q7Z5R6) | inactive: 0
ALCAM (UniProt Q13740) | inactive: 0
ANKRD13D (UniProt Q6ZTN6) | inactive: 0
ANXA1 (UniProt P04083) | inactive: 0
ARHGAP4 (UniProt P98171) | inactive: 0
ADCK4 (UniProt Q96D53) | inactive: 0
ADRBK2 (UniProt P35626) | inactive: 0
ACTR6 (UniProt Q9GZN1) | inactive: 0
ARCN1 (UniProt P48444) | inactive: 0
ACOT7 (UniProt O00154) | inactive: 0
ARHGEF2 (UniProt Q92974) | inactive: 0
ARHGAP18 (UniProt Q8N392) | inactive: 0
ACTR10 (UniProt Q9NZ32) | inactive: 0
ADH5 (UniProt P11766) | inactive: 0
AKT2 (UniProt P31751) | inactive: 0
ACSL3 (UniProt O95573) | inactive: 0

Target | dose-dependent thermal stabilisation call
ARHGDIA (UniProt P52565) | inactive: 0
APIP (UniProt Q96GX9) | inactive: 0
ANXA4 (UniProt P09525) | inactive: 0
ALDH1A2 (UniProt O94788) | inactive: 0
ANAPC10 (UniProt Q9UM13) | inactive: 0
ARFRP1 (UniProt Q13795) | inactive: 0
ADSL (UniProt P30566) | active: 1
ACYP2 (UniProt P14621) | inactive: 0
ARGLU1 (UniProt Q9NWB6) | inactive: 0
ALG6 (UniProt Q9Y672) | inactive: 0
ANXA6 (UniProt P08133) | inactive: 0
ANKRD50 (UniProt Q9ULJ7) | inactive: 0
APOBEC3G (UniProt Q9HC16) | inactive: 0
ARFGAP1 (UniProt Q8N6T3) | inactive: 0
ARHGEF18 (UniProt Q6ZSZ5) | inactive: 0
ARFGEF1 (UniProt Q9Y6D6) | inactive: 0
ARL2 (UniProt P36404) | inactive: 0
ANAPC4 (UniProt Q9UJX5) | inactive: 0
AHNAK (UniProt Q09666) | inactive: 0
